# Data reported in the supplement of paper PMC10735217.
# Structures can show the parent of a compound that is named as a salt. The list shows a part of the results. This data set is noisy: repeats of one test often differ as much as different tests do.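 The human kidney-derived cells carry a stably integrated construct of eight TEAD-binding elements driving luciferase, read by luminescence in a drug-repurposing library screen. A compound counts as a hit when its signal is more than five robust Z scores above the plate mean.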
# Tested on: HEK293A TEAD-LUC reporter
# Test: TEAD-luciferase reporter activity (YAP activation), robust Z score vs plate; higher = stronger YAP/TEAD activation
# Conditions: 24 h
SMILES,TEAD-luciferase reporter activity (compound concentration: 200 nM),TEAD-luciferase reporter activity (compound concentration: 2 uM),TEAD-luciferase reporter activity (compound concentration: 10 uM)
O=P1(NCCBr)OCCCN1CCCl (stereo not drawn) [bromofosfamide],inactive: -0.307,inactive: 0.742,inactive: 0.354
CN1CCc2cccc(Cl)c2CC1,inactive: -1.02,inactive: -0.528,inactive: 1.42
CCOc1ccc2nccc([C@@H](O)[C@@H]3CC4CCN3C[C@@H]4CC)c2c1 (stereo partly drawn),inactive: 1.06,inactive: -0.795,inactive: -1.1
CC(C)N(CCNC(=O)CN1CCCC1=O)C(C)C [pramiracetam],inactive: -1.12,inactive: -1.57,inactive: -1.54
C[N+]1(CC(=O)c2ccc(-c3ccccc3)cc2)C2CCC1CC(OC(=O)[C@H](CO)c1ccccc1)C2 (stereo partly drawn),inactive: 0.258,inactive: -1.47,inactive: -0.104
CN1C(=O)COc2c(C(=O)NC3CN4CCC3CC4)cc(Cl)cc21 (stereo not drawn) [Azasetronn/a],inactive: -0.953,–,inactive: 1.25
CN1C(=O)COc2c(C(=O)NC3CN4CCC3CC4)cc(Cl)cc21 (stereo not drawn) [Azasetron hydrochloride],–,inactive: -1.16,–
O=C1Nc2ccccc2C12CCN(CC1CC1)CC2,inactive: -3.26,–,inactive: 0.681
O=P1(N(CCCl)CCCl)NCCCO1 (stereo not drawn) [Cyclophosphamide],–,inactive: -1.68,–
O=P1(N(CCCl)CCCl)NCCCO1 (stereo not drawn) [Cyclophosphamide monohydrate],–,inactive: 0.104,–
O=P1(N(CCCl)CCCl)NCCCO1 (stereo not drawn) [Cytoxan6055-19-2],inactive: -0.0544,–,inactive: 0.943
C#Cc1cncc([C@@H]2CCCN2C)c1 [Altinicline maleate],inactive: 0.278,inactive: 1.19,inactive: 1.44
O=C(NC(=O)c1c(F)cccc1F)Nc1cc(Cl)c(OC(F)(F)C(F)C(F)(F)F)cc1Cl (stereo not drawn) [Lufenuron],inactive: 1.81,inactive: -1.14,inactive: 3.39
CCN1CCCCC12Cc1ccccc1CN(C(=O)Cc1ccccc1)C2 (stereo not drawn),inactive: -1.23,–,inactive: -0.761
CCOC(=O)C1(c2cccc(O)c2)CCN(C)CC1 [Hydroxypethidine],inactive: 1.14,inactive: 0.586,inactive: 0.0129
c1cc2c(c(NC3=NCCN3)c1)CCCC2,inactive: -0.603,inactive: -2.32,inactive: 1.26
C[C@@]12CCCCC[C@@H](Cc3ccc(O)cc31)[C@@H]2N [dezocine],inactive: -0.868,inactive: -0.608,inactive: 0.801
COc1ccc2c(c1)C1CCCNC1CO2 (stereo not drawn),inactive: 0.268,inactive: -0.599,inactive: -0.475
C/C=C/C1(C(C)C#CCC)C(=O)N=C([O-])N(C)C1=O (stereo not drawn) [Methohexital],inactive: -1.1,inactive: -0.595,inactive: -0.338
CCCC(C(=O)c1ccc(C)cc1)N1CCCC1 (stereo not drawn) [Pyrovalerone HCl],inactive: -0.0254,–,inactive: -0.963
C=CC(C)NC(=S)NNC(=S)NC (stereo not drawn) [Metallibure],inactive: -0.162,inactive: -0.49,inactive: -2.16
CCCCNCC(O)c1ccc(O)cc1 (stereo not drawn),inactive: -1.06,inactive: -0.559,inactive: -0.329
O=C(O)c1nn(Cc2ccc(Cl)cc2Cl)c2ccccc12 [lonidamine],inactive: -1.22,inactive: -0.46,inactive: -0.477
Cc1nc2ccccn2c(=O)c1CCN1CCC(Nc2nc3cccnc3n2Cc2ccco2)CC1,inactive: -0.951,inactive: -0.264,inactive: 1.54
CCCCCCCCCC(=O)O[C@H]1CC[C@H]2[C@@H]3CCC4=CC(=O)CC[C@]4(C)[C@H]3CC[C@]12C,inactive: -1.4,inactive: 4.84,inactive: -0.36
Cc1cc(N(C)C)ccc1CC(C)N (stereo not drawn) [amiflamine],inactive: -1.63,inactive: -1.66,inactive: -1.28
Cc1nnc2n1-c1sc(CCc3ccc(CC(C)C)cc3)cc1C(c1ccccc1Cl)=NC2C (stereo not drawn) [Israpafant],active: 6.56,inactive: -0.362,inactive: -0.697
CC1(C)C(=O)N(c2ccc(C#N)c(C(F)(F)F)c2)C(=O)N1CCCCO,inactive: -1.08,inactive: -0.992,inactive: -1.38

# Nothing new here: an excerpt of the list.
SMILES,TEAD-luciferase reporter activity (compound concentration: 200 nM),TEAD-luciferase reporter activity (compound concentration: 2 uM),TEAD-luciferase reporter activity (compound concentration: 10 uM)
C[C@@]12CCCCC[C@@H](Cc3ccc(O)cc31)[C@@H]2N [dezocine],inactive: -0.868,inactive: -0.608,inactive: 0.801
COc1ccc2c(c1)C1CCCNC1CO2 (stereo not drawn),inactive: 0.268,inactive: -0.599,inactive: -0.475
